B1: RAB15 (protein, UniProt P59190 1-212)
chain: MAKQYDVLFRLLLIGDSGVGKTCLLCRFTDNEFHSSHISTIGVDFKMKTIEVDGIKVRIQIWDTAGQERYQTITKQYYRRAQGIFLVYDISSERSYQHIMKWVSDVDEYAPEGVQKILIGNKADEEQKRQVGREQGQQLAKEYGMDFYETSACTNLNIKESFTRLTELVLQAHRKELEGLRMRASNELALAELEEEEGKPEGPANSSKTCWC
B2: VPS4A (protein, UniProt Q9UN37 1-437)
chain: MTTSTLQKAIDLVTKATEEDKAKNYEEALRLYQHAVEYFLHAIKYEAHSDKAKESIRAKCVQYLDRAEKLKDYLRSKEKHGKKPVKENQSEGKGSDSDSEGDNPEKKKLQEQLMGAVVMEKPNIRWNDVAGLEGAKEALKEAVILPIKFPHLFTGKRTPWRGILLFGPPGTGKSYLAKAVATEANNSTFFSVSSSDLMSKWLGESEKLVKNLFELARQHKPSIIFIDEVDSLCGSRNENESEAARRIKTEFLVQMQGVGNNNDGTLVLGATNIPWVLDSAIRRRFEKRIYIPLPEEAARAQMFRLHLGSTPHNLTDANIHELARKTEGYSGADISIIVRDSLMQPVRKVQSATHFKKVCGPSRTNPSMMIDDLLTPCSPGDPGAMEMTWMDVPGDKLLEPVVCMSDMLRSLATTRPTVNADDLLKVKKFSEDFGQES

Amino acid sequences for entries named in this document (tags omitted). Residues count along the entry.
UniProt Q16665: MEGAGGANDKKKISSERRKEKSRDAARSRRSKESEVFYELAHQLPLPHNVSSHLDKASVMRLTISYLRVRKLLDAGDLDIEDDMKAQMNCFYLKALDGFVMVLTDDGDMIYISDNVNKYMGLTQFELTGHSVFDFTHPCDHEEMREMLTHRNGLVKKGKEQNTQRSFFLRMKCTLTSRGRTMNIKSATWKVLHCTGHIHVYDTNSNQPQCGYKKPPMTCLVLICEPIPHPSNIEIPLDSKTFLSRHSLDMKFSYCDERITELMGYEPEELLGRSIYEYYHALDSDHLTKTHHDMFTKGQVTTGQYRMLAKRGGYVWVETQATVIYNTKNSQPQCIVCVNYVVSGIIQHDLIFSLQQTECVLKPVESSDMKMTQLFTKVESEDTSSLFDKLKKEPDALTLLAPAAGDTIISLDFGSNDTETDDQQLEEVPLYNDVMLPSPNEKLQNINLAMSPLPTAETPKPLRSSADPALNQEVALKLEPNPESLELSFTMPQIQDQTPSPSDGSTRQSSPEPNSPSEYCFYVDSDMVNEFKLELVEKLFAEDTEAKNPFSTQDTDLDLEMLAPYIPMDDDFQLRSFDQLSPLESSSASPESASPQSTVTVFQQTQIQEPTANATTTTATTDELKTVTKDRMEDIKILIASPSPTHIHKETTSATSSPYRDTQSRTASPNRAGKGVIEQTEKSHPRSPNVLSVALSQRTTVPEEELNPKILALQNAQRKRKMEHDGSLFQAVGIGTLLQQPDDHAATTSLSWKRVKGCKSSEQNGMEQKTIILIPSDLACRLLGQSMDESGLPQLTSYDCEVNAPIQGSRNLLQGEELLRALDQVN
UniProt Q13838: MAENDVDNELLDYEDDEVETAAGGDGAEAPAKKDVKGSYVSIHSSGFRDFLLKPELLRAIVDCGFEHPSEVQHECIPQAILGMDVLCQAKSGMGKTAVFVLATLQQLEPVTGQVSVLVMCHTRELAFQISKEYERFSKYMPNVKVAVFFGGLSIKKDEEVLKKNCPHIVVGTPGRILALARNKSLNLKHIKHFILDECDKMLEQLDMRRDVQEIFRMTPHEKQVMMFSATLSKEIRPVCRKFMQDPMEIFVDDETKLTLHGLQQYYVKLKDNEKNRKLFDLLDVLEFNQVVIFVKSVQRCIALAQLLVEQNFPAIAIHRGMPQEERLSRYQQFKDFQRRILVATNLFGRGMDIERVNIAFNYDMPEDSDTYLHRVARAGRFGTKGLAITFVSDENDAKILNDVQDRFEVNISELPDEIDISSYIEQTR
UniProt P52948, residues 1-880: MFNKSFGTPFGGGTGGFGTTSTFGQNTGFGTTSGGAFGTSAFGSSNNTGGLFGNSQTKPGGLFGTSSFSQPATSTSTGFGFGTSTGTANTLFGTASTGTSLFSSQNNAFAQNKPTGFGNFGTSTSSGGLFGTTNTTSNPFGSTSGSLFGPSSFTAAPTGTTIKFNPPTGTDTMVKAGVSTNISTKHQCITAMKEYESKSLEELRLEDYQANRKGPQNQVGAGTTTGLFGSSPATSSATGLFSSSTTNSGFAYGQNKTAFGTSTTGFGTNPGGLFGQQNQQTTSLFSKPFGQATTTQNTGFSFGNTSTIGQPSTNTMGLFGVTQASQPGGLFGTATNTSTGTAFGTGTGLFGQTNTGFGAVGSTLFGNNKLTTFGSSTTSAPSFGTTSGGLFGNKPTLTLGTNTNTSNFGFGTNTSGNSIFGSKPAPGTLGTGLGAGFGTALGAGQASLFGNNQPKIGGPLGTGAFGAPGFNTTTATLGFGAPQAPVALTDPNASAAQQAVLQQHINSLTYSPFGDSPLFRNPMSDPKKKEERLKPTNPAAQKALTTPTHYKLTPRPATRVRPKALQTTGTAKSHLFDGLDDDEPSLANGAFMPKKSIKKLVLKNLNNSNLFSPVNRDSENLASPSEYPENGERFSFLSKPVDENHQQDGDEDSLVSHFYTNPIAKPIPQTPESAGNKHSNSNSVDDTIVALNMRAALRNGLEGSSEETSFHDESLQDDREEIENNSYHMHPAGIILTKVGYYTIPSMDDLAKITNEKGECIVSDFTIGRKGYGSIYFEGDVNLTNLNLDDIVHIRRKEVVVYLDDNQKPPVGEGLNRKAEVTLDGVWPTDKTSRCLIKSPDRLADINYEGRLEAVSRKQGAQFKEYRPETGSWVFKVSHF
UniProt P49792: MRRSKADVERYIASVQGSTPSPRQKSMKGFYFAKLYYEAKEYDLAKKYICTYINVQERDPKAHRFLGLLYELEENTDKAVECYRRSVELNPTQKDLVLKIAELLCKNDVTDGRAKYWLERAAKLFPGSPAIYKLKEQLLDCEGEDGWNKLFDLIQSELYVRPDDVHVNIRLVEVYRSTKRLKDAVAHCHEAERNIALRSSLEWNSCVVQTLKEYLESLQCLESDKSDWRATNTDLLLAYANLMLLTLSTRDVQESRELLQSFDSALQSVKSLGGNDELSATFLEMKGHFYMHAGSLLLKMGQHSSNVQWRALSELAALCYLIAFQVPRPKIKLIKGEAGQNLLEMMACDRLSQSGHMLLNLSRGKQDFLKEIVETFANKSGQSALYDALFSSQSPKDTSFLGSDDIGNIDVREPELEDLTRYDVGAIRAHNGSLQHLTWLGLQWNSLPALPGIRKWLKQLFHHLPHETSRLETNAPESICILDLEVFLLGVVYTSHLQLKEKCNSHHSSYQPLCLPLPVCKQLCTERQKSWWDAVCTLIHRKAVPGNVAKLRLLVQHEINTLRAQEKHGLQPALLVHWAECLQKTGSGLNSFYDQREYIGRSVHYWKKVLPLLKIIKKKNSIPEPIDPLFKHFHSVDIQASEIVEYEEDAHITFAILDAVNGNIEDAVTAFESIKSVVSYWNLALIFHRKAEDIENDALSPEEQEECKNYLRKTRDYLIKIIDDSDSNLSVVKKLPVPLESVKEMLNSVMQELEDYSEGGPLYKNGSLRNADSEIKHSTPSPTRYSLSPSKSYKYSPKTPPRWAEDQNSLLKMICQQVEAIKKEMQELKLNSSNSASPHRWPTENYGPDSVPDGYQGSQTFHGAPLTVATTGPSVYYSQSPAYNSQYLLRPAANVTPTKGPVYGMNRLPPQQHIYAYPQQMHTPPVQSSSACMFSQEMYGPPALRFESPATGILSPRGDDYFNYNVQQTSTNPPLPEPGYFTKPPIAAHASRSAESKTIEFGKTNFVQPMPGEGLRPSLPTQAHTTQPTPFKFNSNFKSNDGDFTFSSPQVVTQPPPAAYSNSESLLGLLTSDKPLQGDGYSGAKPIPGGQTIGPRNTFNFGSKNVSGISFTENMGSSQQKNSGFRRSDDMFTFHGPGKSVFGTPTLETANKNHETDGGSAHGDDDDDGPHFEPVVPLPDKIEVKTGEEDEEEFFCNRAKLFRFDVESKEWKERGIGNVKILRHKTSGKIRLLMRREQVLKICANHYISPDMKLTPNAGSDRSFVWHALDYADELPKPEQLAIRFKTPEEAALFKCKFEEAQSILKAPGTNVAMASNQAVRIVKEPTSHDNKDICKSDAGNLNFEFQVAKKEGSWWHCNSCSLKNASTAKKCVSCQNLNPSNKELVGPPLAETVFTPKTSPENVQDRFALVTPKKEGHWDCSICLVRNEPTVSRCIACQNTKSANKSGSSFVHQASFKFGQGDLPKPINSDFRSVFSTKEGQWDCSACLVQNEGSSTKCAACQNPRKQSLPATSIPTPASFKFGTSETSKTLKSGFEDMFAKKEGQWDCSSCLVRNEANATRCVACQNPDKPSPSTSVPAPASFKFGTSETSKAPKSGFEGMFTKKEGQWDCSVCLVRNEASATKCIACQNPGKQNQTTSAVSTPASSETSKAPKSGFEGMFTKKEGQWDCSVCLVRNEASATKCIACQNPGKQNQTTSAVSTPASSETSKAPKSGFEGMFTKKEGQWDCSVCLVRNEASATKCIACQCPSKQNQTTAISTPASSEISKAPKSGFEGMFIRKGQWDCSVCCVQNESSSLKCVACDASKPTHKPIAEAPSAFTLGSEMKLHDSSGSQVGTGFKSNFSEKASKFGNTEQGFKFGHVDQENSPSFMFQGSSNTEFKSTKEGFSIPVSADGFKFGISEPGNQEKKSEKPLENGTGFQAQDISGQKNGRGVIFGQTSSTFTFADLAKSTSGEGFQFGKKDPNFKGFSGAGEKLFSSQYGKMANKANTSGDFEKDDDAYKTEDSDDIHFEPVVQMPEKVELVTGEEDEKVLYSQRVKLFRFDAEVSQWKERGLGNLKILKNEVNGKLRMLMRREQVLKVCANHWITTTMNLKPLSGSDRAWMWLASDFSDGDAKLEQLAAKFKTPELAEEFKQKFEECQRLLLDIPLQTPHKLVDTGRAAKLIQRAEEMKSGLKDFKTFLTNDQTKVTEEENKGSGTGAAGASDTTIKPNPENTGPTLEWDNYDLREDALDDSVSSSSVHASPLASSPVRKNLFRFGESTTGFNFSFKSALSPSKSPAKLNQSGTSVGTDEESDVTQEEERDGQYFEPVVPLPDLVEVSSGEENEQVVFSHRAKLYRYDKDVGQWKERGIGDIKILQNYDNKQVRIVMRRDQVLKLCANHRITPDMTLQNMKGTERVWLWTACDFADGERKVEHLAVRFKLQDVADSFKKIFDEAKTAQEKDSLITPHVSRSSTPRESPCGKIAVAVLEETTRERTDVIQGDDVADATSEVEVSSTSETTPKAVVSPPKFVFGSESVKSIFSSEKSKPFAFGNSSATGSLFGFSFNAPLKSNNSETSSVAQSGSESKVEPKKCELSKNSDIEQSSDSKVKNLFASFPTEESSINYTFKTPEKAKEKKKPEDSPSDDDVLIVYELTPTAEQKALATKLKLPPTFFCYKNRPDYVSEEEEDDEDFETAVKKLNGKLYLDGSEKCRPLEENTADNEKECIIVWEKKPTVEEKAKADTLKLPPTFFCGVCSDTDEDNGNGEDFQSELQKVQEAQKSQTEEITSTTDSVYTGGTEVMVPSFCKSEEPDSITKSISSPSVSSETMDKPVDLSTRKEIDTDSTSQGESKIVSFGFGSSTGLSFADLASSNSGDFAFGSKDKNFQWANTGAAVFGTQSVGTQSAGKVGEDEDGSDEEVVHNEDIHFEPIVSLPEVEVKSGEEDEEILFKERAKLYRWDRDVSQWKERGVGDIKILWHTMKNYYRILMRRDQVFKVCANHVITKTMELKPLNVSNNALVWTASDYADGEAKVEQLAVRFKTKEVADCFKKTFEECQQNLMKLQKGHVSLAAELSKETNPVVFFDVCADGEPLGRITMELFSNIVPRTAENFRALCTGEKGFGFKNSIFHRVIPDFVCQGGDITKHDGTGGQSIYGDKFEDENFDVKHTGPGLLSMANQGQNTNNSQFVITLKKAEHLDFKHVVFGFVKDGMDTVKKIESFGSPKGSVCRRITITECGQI
UniProt Q92973: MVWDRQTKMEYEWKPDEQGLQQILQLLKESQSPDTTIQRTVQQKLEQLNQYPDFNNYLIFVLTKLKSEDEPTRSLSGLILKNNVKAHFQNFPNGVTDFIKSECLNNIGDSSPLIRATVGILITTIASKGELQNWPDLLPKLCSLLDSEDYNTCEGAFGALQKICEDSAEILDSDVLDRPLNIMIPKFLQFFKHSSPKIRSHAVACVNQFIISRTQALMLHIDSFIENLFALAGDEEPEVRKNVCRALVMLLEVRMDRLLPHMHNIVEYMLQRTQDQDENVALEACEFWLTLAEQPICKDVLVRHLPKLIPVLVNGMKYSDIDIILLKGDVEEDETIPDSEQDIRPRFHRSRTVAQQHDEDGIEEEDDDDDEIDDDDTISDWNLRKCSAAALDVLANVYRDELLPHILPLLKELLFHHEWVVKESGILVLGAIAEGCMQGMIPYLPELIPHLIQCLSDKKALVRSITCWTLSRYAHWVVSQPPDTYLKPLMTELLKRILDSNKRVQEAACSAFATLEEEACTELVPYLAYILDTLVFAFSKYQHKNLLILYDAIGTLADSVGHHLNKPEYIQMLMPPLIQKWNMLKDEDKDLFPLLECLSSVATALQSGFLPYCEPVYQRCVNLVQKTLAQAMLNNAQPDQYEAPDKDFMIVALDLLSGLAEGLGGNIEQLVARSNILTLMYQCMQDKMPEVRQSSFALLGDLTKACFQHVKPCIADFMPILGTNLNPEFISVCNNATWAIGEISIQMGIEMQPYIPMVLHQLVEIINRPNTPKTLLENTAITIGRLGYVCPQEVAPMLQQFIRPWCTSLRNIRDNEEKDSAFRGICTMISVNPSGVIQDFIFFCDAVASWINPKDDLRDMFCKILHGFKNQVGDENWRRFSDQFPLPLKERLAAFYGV

For 8 molecules, binding results are on record in paper PMC11106307.

Results are given in words; binding and its absence hold for the method and conditions named. In cells and extracts the contact can be indirect. Here binding means that the protein was enriched with, or labelled near, the bait; the list need not be complete.

The first test deals with GFP-HIF1α (wild type) (human (cDNA from SW480 cells)) (UniProt Q16665). Kind of test: affinity purification with mass spectrometry; GFP-HIF1α co-expressed with Flag-tagged WT TRIM1, ΔRING TRIM1 or pVec in SW480 cells for 18 h; IP with GFP-specific antibody, SDS-PAGE, in-gel trypsin digestion, LC-MS/MS; spectral counts compared between samples.
For B1, the binding result is “binds”.
Take B2: the binding result was “binds”.

For the next test the target is unchanged. The description is as above. The source holds these as a separate data set.
DDX39B (from UniProt Q13838 1-428): the binding result was “binds”.
In the case of EEF1A2 (from UniProt Q05639 1-463), the binding entry is listed as “binds”.
NUP98 (from UniProt P52948 1-880): the binding entry is listed as “binds”.
With NUP153 (from UniProt P49790 1-1475), the binding entry is listed as “binds”.
For RANBP2 (from UniProt P49792 1-3224), the binding result is listed as “binds”.
The same measure, in the same setting: for TNPO1 (from UniProt Q92973 1-898) the value was “binds”.
